The list shows a part of the results.
Key:
Assay in all cases: log2 fold change, soluble protein after heating vs DMSO (PISA); higher = thermal stabilisation; K562 lysate, 10 uM; active = over 0.2 and 3.5 SD of the protein, either way, in both replicates (recomputed)
[1] = compound: Cc1cn(-c2cc(NC(=O)c3ccc(C)c(Nc4nccc(-c5cccnc5)n4)c3)cc(C(F)(F)F)c2)cn1 [nilotinib]
Outline: (§1)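 Quantification was by TMTpro 16plex LC-MS/MS with equalised channel sums, applied to the supernatant after 21,000xg for 90 min. Samples were crude K562 extract at 1 mg/mL protein in PBS pH 7.4 with 1 mM MgCl2, treated with 10 μM compound for 30 min, heated for 3 min across 48°C-58°C, pooled and brought to 0.5% NP-40 at 4°C. Values are log-two fold changes in thermal stability relative to solvent controls, from duplicates.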

The chains behind the UniProt entries cited, without tags or fusion partners. Where a name states a change or a piece, a line headed by the entry shows the natural chain unless it says otherwise.
UniProt Q9Y520: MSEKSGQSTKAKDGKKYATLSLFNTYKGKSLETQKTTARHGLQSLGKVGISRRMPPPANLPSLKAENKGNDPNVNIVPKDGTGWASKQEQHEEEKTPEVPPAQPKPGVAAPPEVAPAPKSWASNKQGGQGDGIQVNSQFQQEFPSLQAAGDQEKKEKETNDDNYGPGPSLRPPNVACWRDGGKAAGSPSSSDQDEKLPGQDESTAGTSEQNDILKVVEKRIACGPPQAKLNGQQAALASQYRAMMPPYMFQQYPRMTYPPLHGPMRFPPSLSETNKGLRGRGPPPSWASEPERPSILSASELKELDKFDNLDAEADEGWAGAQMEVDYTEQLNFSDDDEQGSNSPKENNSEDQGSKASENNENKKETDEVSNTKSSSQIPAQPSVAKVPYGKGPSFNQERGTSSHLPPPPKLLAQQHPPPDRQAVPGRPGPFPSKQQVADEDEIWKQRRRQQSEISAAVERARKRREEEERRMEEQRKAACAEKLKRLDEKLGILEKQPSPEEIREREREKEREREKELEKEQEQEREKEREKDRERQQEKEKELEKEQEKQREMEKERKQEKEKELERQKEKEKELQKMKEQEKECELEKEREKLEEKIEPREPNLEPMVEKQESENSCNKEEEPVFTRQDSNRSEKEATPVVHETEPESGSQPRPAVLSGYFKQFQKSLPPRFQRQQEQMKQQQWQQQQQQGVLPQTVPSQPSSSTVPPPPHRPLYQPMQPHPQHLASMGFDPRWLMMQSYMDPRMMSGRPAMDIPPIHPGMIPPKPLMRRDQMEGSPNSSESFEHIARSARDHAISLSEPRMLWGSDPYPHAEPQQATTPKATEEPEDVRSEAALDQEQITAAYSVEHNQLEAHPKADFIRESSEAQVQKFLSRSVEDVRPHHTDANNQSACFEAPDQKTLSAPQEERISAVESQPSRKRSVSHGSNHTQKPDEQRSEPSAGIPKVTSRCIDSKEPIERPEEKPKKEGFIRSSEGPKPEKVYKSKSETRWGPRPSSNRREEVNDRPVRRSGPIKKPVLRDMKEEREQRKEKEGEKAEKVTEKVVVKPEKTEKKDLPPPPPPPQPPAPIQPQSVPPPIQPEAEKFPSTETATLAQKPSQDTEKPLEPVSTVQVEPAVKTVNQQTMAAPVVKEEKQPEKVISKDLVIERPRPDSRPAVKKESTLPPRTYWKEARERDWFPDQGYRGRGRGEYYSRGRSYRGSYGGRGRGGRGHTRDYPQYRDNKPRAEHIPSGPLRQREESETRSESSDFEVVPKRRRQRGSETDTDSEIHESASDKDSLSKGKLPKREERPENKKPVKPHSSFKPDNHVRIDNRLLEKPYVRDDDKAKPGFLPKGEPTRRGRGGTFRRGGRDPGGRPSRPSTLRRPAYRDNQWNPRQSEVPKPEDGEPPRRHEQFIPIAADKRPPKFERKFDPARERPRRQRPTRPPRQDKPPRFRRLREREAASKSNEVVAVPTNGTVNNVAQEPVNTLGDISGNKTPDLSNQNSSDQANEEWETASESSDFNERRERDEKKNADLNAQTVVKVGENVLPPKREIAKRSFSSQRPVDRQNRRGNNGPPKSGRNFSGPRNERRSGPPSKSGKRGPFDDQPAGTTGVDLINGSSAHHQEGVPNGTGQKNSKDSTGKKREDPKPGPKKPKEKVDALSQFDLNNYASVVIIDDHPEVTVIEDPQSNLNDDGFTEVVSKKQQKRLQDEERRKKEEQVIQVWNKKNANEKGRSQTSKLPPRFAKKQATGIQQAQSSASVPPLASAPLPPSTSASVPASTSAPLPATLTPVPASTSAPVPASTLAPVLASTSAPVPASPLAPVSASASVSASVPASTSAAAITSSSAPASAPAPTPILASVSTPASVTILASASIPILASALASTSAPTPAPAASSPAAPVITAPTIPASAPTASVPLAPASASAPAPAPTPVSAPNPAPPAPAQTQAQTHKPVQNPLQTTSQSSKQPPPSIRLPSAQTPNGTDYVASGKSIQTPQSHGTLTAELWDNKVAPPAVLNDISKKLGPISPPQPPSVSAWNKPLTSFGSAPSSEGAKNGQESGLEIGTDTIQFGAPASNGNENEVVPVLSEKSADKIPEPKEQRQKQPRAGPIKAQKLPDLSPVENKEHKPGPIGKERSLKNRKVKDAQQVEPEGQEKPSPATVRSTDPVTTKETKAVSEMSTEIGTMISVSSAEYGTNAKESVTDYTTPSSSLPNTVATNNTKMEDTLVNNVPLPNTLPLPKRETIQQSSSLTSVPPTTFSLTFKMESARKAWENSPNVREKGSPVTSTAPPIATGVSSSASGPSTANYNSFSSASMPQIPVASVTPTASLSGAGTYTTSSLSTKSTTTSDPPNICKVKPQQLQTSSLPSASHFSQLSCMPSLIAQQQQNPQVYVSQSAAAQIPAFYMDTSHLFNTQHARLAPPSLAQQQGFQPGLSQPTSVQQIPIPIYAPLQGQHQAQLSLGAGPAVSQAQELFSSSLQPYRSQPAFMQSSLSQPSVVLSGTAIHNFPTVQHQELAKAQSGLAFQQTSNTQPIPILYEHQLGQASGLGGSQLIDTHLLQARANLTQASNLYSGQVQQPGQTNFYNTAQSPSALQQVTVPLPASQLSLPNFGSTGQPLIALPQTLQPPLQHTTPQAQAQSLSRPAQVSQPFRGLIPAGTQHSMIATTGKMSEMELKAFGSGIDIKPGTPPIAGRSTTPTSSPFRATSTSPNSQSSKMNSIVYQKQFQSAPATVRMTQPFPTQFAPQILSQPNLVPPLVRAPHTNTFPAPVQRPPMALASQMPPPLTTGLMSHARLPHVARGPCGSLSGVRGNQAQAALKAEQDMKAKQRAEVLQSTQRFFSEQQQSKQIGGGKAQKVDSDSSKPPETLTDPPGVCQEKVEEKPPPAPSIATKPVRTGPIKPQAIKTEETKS
UniProt Q96M27: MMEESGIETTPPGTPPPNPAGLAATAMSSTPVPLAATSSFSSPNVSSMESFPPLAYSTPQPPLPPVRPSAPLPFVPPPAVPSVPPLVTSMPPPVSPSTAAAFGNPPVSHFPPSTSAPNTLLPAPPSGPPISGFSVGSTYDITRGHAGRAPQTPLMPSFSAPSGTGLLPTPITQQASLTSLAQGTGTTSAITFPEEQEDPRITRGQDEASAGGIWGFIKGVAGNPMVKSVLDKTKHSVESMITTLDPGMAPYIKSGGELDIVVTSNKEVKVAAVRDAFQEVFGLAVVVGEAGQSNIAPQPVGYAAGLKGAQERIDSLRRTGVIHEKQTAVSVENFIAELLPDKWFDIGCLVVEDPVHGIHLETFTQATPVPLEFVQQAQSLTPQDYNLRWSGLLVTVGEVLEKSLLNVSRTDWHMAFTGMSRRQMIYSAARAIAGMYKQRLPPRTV
UniProt Q13200: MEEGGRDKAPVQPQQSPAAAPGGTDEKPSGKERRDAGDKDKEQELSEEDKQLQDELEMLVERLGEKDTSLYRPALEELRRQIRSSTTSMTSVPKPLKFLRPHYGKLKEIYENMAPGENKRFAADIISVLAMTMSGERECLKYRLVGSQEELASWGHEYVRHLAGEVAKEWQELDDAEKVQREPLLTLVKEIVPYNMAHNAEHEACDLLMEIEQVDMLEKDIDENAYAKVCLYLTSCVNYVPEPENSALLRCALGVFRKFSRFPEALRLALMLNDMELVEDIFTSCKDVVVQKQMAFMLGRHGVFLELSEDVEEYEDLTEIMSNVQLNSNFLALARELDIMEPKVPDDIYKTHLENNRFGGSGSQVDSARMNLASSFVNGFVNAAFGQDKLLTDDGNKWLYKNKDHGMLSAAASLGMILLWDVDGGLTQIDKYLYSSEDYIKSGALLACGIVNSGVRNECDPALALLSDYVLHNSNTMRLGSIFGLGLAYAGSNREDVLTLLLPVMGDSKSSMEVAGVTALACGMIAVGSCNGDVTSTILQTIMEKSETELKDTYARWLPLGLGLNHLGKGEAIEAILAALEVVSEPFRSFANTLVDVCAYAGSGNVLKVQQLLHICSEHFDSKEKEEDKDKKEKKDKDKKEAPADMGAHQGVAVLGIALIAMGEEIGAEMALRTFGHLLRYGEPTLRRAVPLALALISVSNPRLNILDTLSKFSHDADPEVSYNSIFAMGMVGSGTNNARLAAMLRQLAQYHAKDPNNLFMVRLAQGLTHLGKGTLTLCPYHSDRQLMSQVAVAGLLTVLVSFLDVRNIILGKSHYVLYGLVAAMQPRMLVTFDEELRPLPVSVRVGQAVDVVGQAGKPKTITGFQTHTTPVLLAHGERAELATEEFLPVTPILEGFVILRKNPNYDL
UniProt P41219, whole entry, looked up: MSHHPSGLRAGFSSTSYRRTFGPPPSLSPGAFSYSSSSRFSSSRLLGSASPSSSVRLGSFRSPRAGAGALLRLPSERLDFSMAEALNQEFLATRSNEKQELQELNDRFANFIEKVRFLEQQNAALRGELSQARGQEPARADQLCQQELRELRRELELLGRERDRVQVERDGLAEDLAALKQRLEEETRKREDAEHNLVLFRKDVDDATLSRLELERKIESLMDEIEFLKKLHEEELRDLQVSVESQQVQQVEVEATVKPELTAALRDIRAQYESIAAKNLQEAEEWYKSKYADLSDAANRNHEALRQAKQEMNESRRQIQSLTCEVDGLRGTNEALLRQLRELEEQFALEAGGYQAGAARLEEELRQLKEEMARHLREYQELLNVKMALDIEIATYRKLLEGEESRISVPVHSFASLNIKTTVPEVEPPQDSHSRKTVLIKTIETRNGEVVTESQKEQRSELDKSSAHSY
UniProt Q14671: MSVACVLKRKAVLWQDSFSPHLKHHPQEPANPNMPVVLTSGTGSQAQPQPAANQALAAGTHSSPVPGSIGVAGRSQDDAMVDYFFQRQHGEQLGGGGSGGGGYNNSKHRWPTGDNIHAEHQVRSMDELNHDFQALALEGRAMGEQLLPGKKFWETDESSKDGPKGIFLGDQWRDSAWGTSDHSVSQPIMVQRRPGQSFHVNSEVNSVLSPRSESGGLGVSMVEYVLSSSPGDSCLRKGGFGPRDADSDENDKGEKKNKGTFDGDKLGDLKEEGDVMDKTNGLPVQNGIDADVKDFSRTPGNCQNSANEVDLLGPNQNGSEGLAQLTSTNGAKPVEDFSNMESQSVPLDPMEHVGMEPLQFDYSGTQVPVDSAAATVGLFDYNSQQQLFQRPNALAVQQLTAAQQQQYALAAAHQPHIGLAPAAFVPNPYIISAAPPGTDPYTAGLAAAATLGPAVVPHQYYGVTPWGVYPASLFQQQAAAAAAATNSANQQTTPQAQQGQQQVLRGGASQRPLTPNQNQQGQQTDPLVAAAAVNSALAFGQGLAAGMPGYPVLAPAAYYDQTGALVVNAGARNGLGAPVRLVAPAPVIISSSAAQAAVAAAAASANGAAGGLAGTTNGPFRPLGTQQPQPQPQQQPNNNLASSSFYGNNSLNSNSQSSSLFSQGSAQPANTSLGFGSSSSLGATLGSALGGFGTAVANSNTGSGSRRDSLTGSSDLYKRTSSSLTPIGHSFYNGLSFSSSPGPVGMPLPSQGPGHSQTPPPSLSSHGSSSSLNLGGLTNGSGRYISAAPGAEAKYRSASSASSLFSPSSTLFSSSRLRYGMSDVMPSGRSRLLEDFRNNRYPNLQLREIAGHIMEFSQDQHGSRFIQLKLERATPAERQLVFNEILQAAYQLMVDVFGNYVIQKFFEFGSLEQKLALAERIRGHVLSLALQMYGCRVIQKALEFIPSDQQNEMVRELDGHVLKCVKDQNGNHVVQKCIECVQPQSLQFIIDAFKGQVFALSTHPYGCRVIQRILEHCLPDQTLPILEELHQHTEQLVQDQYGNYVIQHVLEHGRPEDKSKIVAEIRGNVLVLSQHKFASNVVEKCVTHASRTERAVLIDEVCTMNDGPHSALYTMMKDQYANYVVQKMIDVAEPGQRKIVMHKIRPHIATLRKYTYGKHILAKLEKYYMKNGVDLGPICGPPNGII
UniProt P51665: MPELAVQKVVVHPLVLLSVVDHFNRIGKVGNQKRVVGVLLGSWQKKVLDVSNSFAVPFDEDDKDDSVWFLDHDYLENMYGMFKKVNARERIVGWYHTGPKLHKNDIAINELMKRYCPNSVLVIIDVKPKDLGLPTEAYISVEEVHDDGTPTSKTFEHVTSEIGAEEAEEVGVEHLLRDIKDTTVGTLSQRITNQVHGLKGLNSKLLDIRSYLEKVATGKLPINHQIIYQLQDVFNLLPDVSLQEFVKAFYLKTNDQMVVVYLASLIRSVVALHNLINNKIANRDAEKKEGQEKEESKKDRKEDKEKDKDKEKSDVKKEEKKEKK
UniProt Q96QR8: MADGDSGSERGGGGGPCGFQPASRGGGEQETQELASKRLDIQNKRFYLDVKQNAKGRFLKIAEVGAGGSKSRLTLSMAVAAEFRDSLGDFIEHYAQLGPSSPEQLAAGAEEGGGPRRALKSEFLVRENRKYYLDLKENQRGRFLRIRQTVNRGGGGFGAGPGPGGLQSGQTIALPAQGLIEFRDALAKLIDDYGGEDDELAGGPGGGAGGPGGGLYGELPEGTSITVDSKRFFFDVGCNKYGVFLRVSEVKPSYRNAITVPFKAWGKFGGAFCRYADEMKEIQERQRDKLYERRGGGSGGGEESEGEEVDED

[2] = compound: Cc1nc(Nc2n[nH]c3c2CN(C(=O)N[C@H](CN(C)C)c2ccccc2)C3(C)C)c2sccc2n1
Outline: as §1

[3] = compound: Cc1nc(Nc2ncc(C(=O)Nc3c(C)cccc3Cl)s2)cc(N2CCN(CCO)CC2)n1 [dasatinib]
Outline: as §1

[4] = compound: Cc1ncc(-c2ccnc(Nc3ccc(S(C)(=O)=O)cc3)n2)n1C(C)C
Outline: as §1

[5] = compound: Cn1cc(-c2ccc3c(c2)CCN3C(=O)Cc2cccc(C(F)(F)F)c2)c2c(N)ncnc21
Outline: as §1

[6] = compound: Cn1cc(CNCC2CCN(c3ncc(C(=O)NO)cn3)CC2)c2ccccc21 [quisinostat]
Outline: as §1

[7] = compound: Cn1cncc1[C@@](N)(c1ccc(Cl)cc1)c1ccc2c(c1)c(-c1cccc(Cl)c1)cc(=O)n2C [tipifarnib]
Outline: as §1

[8] = compound: NC(=O)Nc1cc(-c2cccc(F)c2)sc1C(=O)N[C@H]1CCCNC1
Outline: as §1

[9] = compound: NC(=O)c1cnc(N[C@@H]2CCCC[C@@H]2N)nc1Nc1cccc(-n2nccn2)c1
Outline: as §1

[10] = compound: NC1(c2ccc(-c3nc4ccn5c(=O)[nH]nc5c4cc3-c3ccccc3)cc2)CCC1
Outline: as §1

Measured: log2 fold change

PSMA6 (UniProt P60900)
inactive: [1] 0.035 | [2] -0.018 | [3] 0.031 | [4] -0.008 | [5] -0.034 | [6] -0.011 | [7] -0.001 | [8] -0.016 | [9] -0.029 | [10] -0.01

PRRC2C isoform 7 (UniProt Q9Y520)
inactive: [1] -0.054 | [2] 0.014 | [3] -0.008 | [4] 0.017 | [5] -0.02 | [6] -0.011 | [7] -0.021 | [8] 0.017 | [9] -0.005 | [10] 0.002

PSMD10 (UniProt O75832)
inactive: [1] 0.018 | [2] -0.033 | [3] -0.023 | [4] -0.001 | [5] -0.067 | [6] 0.015 | [7] 0.002 | [8] 0.027 | [9] -0.017 | [10] -0.035

PRRC1 (UniProt Q96M27)
inactive: [1] 0.02 | [2] 0.019 | [3] -0.013 | [4] -0.016 | [5] -0.043 | [6] 0.035 | [7] -0.023 | [8] -0.023 | [9] -0.008 | [10] -0.016

PSMD2 (UniProt Q13200)
inactive: [1] 0.004 | [2] -0.009 | [3] -0.014 | [4] -0.013 | [5] -0.001 | [6] -0.018 | [7] -0.003 | [8] 0.011 | [9] 0.002 | [10] -0.018

PTPN2 (UniProt P17706)
inactive: [1] 0 | [2] 0.026 | [3] -0.026 | [4] -0.041 | [5] 0.014 | [6] -0.067 | [7] -0.001 | [8] 0.025 | [9] 0.006 | [10] -0.005

PRPH isoform 2 (UniProt P41219)
inactive: [1] -0.022 | [2] 0.032 | [3] -0.019 | [4] -0.024 | [5] 0.036 | [6] 0.034 | [7] -0.02 | [8] -0.027 | [9] 0.028 | [10] 0.094

PTTG1IP (UniProt P53801)
inactive: [1] -0.242 | [2] -0.03 | [3] -0.085 | [4] -0.202 | [5] 0.176 | [6] -0.18 | [7] -0.034 | [8] 0.067 | [9] 0.039 | [10] 0.086

PUM1 isoform 3 (UniProt Q14671)
inactive: [1] -0.072 | [2] -0.012 | [3] -0.027 | [4] 0.03 | [5] 0.016 | [6] 0.01 | [7] -0.057 | [8] 0.004 | [9] -0.021 | [10] 0.028

PSEN1 (UniProt P49768)
inactive: [1] -0.01 | [2] -0.034 | [3] 0.008 | [4] 0.058 | [5] -0.029 | [6] -0.11 | [7] 0.076 | [8] 0.016 | [9] 0.019 | [10] -0.01

PSMD1 (UniProt Q99460)
inactive: [1] -0.016 | [2] 0.021 | [3] 0.027 | [4] 0.001 | [5] -0.008 | [6] -0.043 | [7] -0.021 | [8] 0.016 | [9] 0.003 | [10] -0.015

PTER (UniProt Q96BW5)
inactive: [1] 0.026 | [2] -0.012 | [3] 0 | [4] -0.004 | [5] 0.009 | [6] -0.01 | [7] 0.02 | [8] 0.008 | [9] -0.007 | [10] 0.027

PTGR2 (UniProt Q8N8N7)
inactive: [1] 0.024 | [2] -0.044 | [3] 0.012 | [4] 0.025 | [5] 0.024 | [6] -0.008 | [7] 0.034 | [8] -0.011 | [9] -0.002 | [10] 0.011

PWP1 (UniProt Q13610)
inactive: [1] -0.016 | [2] 0.009 | [3] 0.065 | [4] 0.005 | [5] 0.048 | [6] 0.068 | [7] 0.017 | [8] -0.005 | [9] -0.003 | [10] 0.036

PSMC3 (UniProt P17980)
inactive: [1] -0.004 | [2] 0 | [3] 0.003 | [4] -0.052 | [5] 0.007 | [6] 0.029 | [7] -0.008 | [8] 0.012 | [9] 0.001 | [10] 0.002

PTPN6 isoform 4 (UniProt P29350)
inactive: [1] -0.002 | [2] -0.028 | [3] 0.028 | [4] -0.043 | [5] 0.071 | [6] 0.01 | [7] 0.055 | [8] -0.03 | [9] -0.128 | [10] 0.062

PTPRS isoform 3 (UniProt Q13332)
inactive: [1] 0.067 | [2] -0.138 | [3] 0.007 | [4] 0.099 | [5] -0.042 | [6] -0.085 | [7] -0.04 | [8] -0.039 | [9] 0.008 | [10] 0.01

PSME1 (UniProt Q06323)
inactive: [1] 0.026 | [2] -0.004 | [3] 0.052 | [4] -0.012 | [5] 0.016 | [6] 0.041 | [7] 0.027 | [8] -0.007 | [9] -0.009 | [10] 0.022

PRXL2B isoform 3 (UniProt Q8TBF2)
inactive: [1] 0.027 | [2] -0.057 | [3] -0.083 | [4] -0.028 | [5] 0.01 | [6] -0.03 | [7] -0.015 | [8] -0.021 | [9] 0.02 | [10] -0.018

PSMD7 (UniProt P51665)
inactive: [1] 0.015 | [2] 0.029 | [3] -0.012 | [4] 0.017 | [5] -0.004 | [6] -0.025 | [7] -0.011 | [8] 0.048 | [9] 0.006 | [10] -0.019

PURB (UniProt Q96QR8)
inactive: [1] 0.011 | [2] 0.018 | [3] 0.032 | [4] -0.008 | [5] 0.035 | [6] 0.13 | [7] -0.033 | [8] -0.028 | [9] 0.007 | [10] -0.028

PSMG3 (UniProt Q9BT73)
inactive: [1] -0.004 | [2] -0.011 | [3] 0.074 | [4] -0.008 | [5] 0 | [6] 0.006 | [7] 0.005 | [8] 0.017 | [9] 0.025 | [10] -0.022

Copied from the entries so far (2 entries):
PSME1 (UniProt Q06323)
inactive: [1] 0.026 | [2] -0.004 | [3] 0.052 | [4] -0.012 | [5] 0.016 | [6] 0.041 | [7] 0.027 | [8] -0.007 | [9] -0.009 | [10] 0.022

PRXL2B isoform 3 (UniProt Q8TBF2)
inactive: [1] 0.027 | [2] -0.057 | [3] -0.083 | [4] -0.028 | [5] 0.01 | [6] -0.03 | [7] -0.015 | [8] -0.021 | [9] 0.02 | [10] -0.018

Additional records

PTPN12 (UniProt Q05209)
inactive: [1] -0.034 | [2] 0.028 | [3] -0.04 | [4] -0.02 | [5] 0.01 | [6] -0.018 | [7] -0.017 | [8] 0.006 | [9] 0.007 | [10] 0.007

PSMB9 (UniProt P28065)
inactive: [1] 0.019 | [2] 0.092 | [3] -0.031 | [4] -0.098 | [5] -0.033 | [6] -0.213 | [7] 0.024 | [8] 0.027 | [9] 0.034 | [10] -0.076

PSME4 (UniProt Q14997)
inactive: [1] 0.001 | [2] -0.015 | [3] -0.028 | [4] -0.022 | [5] -0.016 | [6] -0.061 | [7] -0.012 | [8] 0.108 | [9] 0.01 | [10] -0.015

PTPN23 (UniProt Q9H3S7)
inactive: [1] -0.003 | [2] -0.029 | [3] -0.034 | [4] -0.002 | [5] 0.01 | [6] 0.002 | [7] 0 | [8] 0.024 | [9] 0.025 | [10] 0.005

PTS (UniProt Q03393)
inactive: [1] 0.172 | [2] 0.024 | [3] 0 | [4] -0.018 | [5] 0.082 | [6] -0.083 | [7] 0.112 | [8] 0.126 | [9] 0.006 | [10] -0.077

PSMB5 (UniProt P28074)
inactive: [1] 0.084 | [2] -0.009 | [3] 0.053 | [4] 0 | [5] -0.018 | [6] 0.021 | [7] 0.005 | [8] 0.006 | [9] -0.017 | [10] 0.022

PUS10 (UniProt Q3MIT2)
inactive: [1] -0.041 | [2] -0.037 | [3] 0.002 | [4] -0.023 | [5] 0.051 | [6] -0.027 | [7] 0.071 | [8] 0.022 | [9] -0.025 | [10] -0.022

From the supplement of paper PMC10849652
